PubChem BioAssay AID1224828 | NIAID – 2016
Test: 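Knock-downs that increase or decrease LPS-induced p65 nuclear translocation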 (primary screen). System: mouse RAW264.7 G9 macrophage reporter cells (GFP-p65, Tnf promoter-mCherry). Reagents: siRNA pool against mouse genes, 100 nM. Timing: 2 days siRNA transfection, then 40 min LPS before fixation. Challenge: LPS (Salmonella minnesota R595) at 10 ng/ml. Read-out: 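Microscopy ratio of nuclear to perinuclear-ring GFP-p65 signal, scaled to the plate median; gene score is the average of two replicate robust z-scores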. Direction: p65 translocation robust z-score: higher = more nuclear NF-kappaB p65 after LPS than the plate median; nuclear/cytoplasmic p65 ratio: higher = more nuclear NF-kappaB p65. Hit rule: 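Active if robust z is above 3.3 (negative regulators) or below -1.56, the Tlr4 control median (positive regulators); activity score 50 or more; control wells not called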. Calls: active = hit (p65 shift raised or lowered); inactive = no clear change.
In all, the deposit lists about 17,000 reagents; below is a part drawn at random. 762 of them (4.5%) count as active. 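Active calls include both raised and lowered p65 entry, mostly lowered; wells with fewer than 50 cells lack a z-score.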 Raw values vary from plate to plate and are shown uncorrected. Reagent sequences are not shown.

Or4x15 (olfactory receptor family 4 subfamily X member 15)
- p65 translocation robust z-score: -1.65
- nuclear/cytoplasmic p65 ratio, rep 1: 1.36
- nuclear/cytoplasmic p65 ratio, rep 2: 1.18
- low cell count flag: enough cells to score
- call: active

Ddo (D-aspartate oxidase)
- p65 translocation robust z-score: 1.42
- nuclear/cytoplasmic p65 ratio, rep 1: 1.51
- nuclear/cytoplasmic p65 ratio, rep 2: 1.69
- low cell count flag: enough cells to score
- call: inactive

Pak2 (p21 (RAC1) activated kinase 2)
- p65 translocation robust z-score: 1.93
- nuclear/cytoplasmic p65 ratio, rep 1: 1.53
- nuclear/cytoplasmic p65 ratio, rep 2: 1.62
- low cell count flag: enough cells to score
- call: inactive

Mlxip (MLX interacting protein)
- p65 translocation robust z-score: -0.53
- nuclear/cytoplasmic p65 ratio, rep 1: 1.55
- nuclear/cytoplasmic p65 ratio, rep 2: 1.52
- low cell count flag: enough cells to score
- call: inactive

Snx2 (sorting nexin 2)
- p65 translocation robust z-score: -1.39
- nuclear/cytoplasmic p65 ratio, rep 1: 1.17
- nuclear/cytoplasmic p65 ratio, rep 2: 1.07
- low cell count flag: enough cells to score
- call: inactive

Tmem139 (transmembrane protein 139)
- p65 translocation robust z-score: -0.82
- nuclear/cytoplasmic p65 ratio, rep 1: 1.22
- nuclear/cytoplasmic p65 ratio, rep 2: 1.47
- low cell count flag: enough cells to score
- call: inactive

Trappc8 (trafficking protein particle complex 8)
- p65 translocation robust z-score: -0.33
- nuclear/cytoplasmic p65 ratio, rep 1: 1.49
- nuclear/cytoplasmic p65 ratio, rep 2: 1.77
- low cell count flag: enough cells to score
- call: inactive

Dlk1 (delta like non-canonical Notch ligand 1)
- p65 translocation robust z-score: -1
- nuclear/cytoplasmic p65 ratio, rep 1: 1.32
- nuclear/cytoplasmic p65 ratio, rep 2: 1.27
- low cell count flag: enough cells to score
- call: inactive

Gbp8 (guanylate-binding protein 8)
- nuclear/cytoplasmic p65 ratio, rep 1: 1.14
- nuclear/cytoplasmic p65 ratio, rep 2: 1.06
- low cell count flag: fewer than 50 cells per well; well left out of scoring
- call: inactive

Rfx1 (regulatory factor X, 1 (influences HLA class II expression))
- p65 translocation robust z-score: -0.07
- nuclear/cytoplasmic p65 ratio, rep 1: 1.49
- nuclear/cytoplasmic p65 ratio, rep 2: 1.52
- low cell count flag: enough cells to score
- call: inactive

Mcfd2 (multiple coagulation factor deficiency 2)
- p65 translocation robust z-score: -0.54
- nuclear/cytoplasmic p65 ratio, rep 1: 1.63
- nuclear/cytoplasmic p65 ratio, rep 2: 1.47
- low cell count flag: enough cells to score
- call: inactive

Lipk (lipase family member K)
- nuclear/cytoplasmic p65 ratio, rep 1: 1.64
- nuclear/cytoplasmic p65 ratio, rep 2: 1.78
- low cell count flag: fewer than 50 cells per well; well left out of scoring
- call: inactive
